Results published in patent publication US7064202B1 (University of Kentucky Research Foundation, priority 2003, dated 2006).

Test: Remote active loading of prodrug into premade small unilamellar vesicles (transmembrane ammonium sulfate gradient)
Conditions: underivatized drug

| Compound | localization in the liposome |
| --- | --- |
| CC[C@@]1(O)C(=O)OCc2c1cc1n(c2=O)Cc2c-1nc1ccc(O)cc1c2[Si](C)(C)C(C)(C)C [DB-67] | localize predominantly in the bilayer compartment of the liposome |
| Camptothecin | localize predominantly in the bilayer compartment of the liposome |
